In PMC11910558:
These are yes or no findings as the source states them, for the method shown. In cells and extracts the contact can be indirect. Some binding calls cover weakened binding; strength is not graded here.

Assays:
[1] = target: Fos proto-oncogene, AP-1 transcription factor subunit (FOS) (human (endogenous in SK-N-SH and SY5Y)) (UniProt P01100); test: co-IP; 2 mg precleared whole cell lysate of NB cells (RIPA buffer with protease inhibitors) incubated with 2 ug anti-FOS or IgG control for 2 h, protein G beads; western blot
[2] = target: T1, Fos proto-oncogene, AP-1 transcription factor subunit (FOS) (human (endogenous in SK-N-SH and SY5Y)), P01100; test: as above; conditions: remark: other sources report otherwise
T1 chain: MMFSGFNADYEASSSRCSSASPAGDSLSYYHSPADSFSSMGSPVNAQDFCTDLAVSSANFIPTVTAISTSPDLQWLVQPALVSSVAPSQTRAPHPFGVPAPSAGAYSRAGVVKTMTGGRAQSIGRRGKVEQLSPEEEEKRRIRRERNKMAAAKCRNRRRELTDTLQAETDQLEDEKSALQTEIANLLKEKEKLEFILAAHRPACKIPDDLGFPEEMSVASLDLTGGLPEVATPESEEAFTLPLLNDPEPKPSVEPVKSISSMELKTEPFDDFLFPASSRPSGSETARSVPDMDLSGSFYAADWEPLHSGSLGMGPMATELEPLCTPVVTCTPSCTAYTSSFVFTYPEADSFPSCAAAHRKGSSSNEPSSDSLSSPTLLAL

p53 (from UniProt P04637 1-393)
binding [1]: no binding

B1: JUND, P17535 1-347 (protein)
chain: METPFYGDEALSGLGGGASGSGGSFASPGRLFPGAPPTAAAGSMMKKDALTLSLSEQVAAALKPAAAPPPTPLRADGAPSAAPPDGLLASPDLGLLKLASPELERLIIQSNGLVTTTPTSSQFLYPKVAASEEQEFAEGFVKALEDLHKQNQLGAGAAAAAAAAAAGGPSGTATGSAPPGELAPAAAAPEAPVYANLSSYAGGAGGAGGAATVAFAAEPVPFPPPPPPGALGPPRLAALKDEPQTVPDVPSFGESPPLSPIDMDTQERIKAERKRLRNRIAASKCRKRKLERISRLEEKVKTLKSQNTELASTASLLREQVAQLKQKVLSHVNSGCQLLPQHQVPAY
binding [2]: binds
